Assay results published in US10988477B2 (Merck Patent GmbH, priority 2018, dated 2021).

Sequences of proteins named here, by UniProt entry; tags and fusion partners are left off.
UniProt Q9P2K8, whole entry: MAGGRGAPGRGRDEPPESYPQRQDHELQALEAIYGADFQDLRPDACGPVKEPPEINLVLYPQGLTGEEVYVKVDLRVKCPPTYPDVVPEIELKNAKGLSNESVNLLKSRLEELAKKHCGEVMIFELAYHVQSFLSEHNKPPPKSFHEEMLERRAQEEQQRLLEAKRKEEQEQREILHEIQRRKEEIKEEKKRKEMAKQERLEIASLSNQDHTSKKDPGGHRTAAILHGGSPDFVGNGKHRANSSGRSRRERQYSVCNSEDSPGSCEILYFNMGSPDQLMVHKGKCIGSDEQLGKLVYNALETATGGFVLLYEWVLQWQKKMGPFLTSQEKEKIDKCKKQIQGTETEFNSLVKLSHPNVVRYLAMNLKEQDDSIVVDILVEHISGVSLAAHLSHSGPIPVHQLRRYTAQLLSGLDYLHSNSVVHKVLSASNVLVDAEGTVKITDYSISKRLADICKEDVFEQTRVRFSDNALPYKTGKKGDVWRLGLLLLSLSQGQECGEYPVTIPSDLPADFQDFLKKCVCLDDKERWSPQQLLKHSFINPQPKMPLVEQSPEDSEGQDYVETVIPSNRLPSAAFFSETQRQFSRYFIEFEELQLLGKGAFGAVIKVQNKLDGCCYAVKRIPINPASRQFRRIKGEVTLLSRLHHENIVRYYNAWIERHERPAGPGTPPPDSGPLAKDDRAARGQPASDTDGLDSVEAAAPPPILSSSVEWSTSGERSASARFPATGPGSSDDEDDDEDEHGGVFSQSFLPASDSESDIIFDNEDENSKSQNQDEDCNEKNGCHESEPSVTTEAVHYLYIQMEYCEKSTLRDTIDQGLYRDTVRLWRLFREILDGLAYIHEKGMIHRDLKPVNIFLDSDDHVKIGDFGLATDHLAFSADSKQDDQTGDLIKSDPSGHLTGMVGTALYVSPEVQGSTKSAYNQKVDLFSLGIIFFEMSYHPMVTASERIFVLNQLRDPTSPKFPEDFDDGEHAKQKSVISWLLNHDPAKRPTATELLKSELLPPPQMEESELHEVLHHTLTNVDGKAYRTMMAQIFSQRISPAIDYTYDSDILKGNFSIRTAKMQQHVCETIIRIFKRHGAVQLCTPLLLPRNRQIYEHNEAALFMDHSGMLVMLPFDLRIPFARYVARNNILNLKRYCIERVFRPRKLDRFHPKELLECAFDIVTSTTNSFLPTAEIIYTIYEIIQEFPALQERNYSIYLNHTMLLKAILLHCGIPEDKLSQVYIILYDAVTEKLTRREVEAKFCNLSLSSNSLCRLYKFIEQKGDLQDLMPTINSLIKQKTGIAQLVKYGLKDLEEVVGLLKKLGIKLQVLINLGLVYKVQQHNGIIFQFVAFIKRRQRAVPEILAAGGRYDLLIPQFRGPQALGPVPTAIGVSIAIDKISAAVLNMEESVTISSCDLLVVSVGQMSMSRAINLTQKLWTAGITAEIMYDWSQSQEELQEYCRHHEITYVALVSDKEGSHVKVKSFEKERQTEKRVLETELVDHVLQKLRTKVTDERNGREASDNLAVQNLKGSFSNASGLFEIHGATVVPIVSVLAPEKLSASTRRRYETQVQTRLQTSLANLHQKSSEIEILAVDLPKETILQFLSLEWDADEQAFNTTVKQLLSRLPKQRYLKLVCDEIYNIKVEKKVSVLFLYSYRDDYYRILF

What was measured:
GCN2 kinase = GCN2 kinase (Homo sapiens, UniProt Q9P2K8); assay: GCN2 enzyme inhibition assay (Transcreener ADP2 fluorescence polarization); conditions: read-out: GCN2 (Ki); Enzyme activity for compounds of Formula IV; Ki(app), 280 μM ATP, 25° C.
Procedure: Compounds were screened for their ability to inhibit GCN2 kinase activity using a Transcreener® ADP^2 fluorescence polarization assay that detects ADP levels (BellBrook Labs, WI). Assays were carried out in a buffer consisting of 25 mM Tris-HCl (pH 7.5), 50 mM NaCl, 10 mM MgCl2 and 1 mM DTT. Final substrate concentrations were 280 μM ATP and 200 μM peptidic substrate (H-[…]OH [(RS)7], Bachem, Switzerland). Assays were carried out at 25° C. in the presence of a (typical) final concentration of 4 nM GCN2 kinase.
An assay buffer containing GCN2 kinase and (RS)7 was prepared. 4.7 μL of this stock solution was placed per well of a black, low volume, 384-well microtitre plate (e.g. catalogue number 3676, Corning Inc., NY). […] The reaction was left to incubate for 1 hour at 25° C., prior to measuring the fluorescence polarisation signal (mP) in each well using a PHERAstar FS reader (BMG Labtech, Germany).
Fluorescence polarization values were normalized to an in plate standard curve consisting of various ratios of ATP to ADP in assay buffer to a final total concentration of 280 μM. […] Percentage inhibition of enzyme activity was then calculated at each compound dose. IC50 and Ki(app) (using known assay and kinetic parameters) values were calculated from percentage inhibition data using a non-linear, tight-binding algorithm. […]

[1] = target: intracellular GCN2 (phosphorylation of the GCN2 substrate eIF2α) (Homo sapiens, UniProt Q9P2K8); assay: GCN2 cellular inhibition assay (AlphaScreen SureFire P-eIF2α Ser51, borrelidin-treated U2OS cells); conditions: read-out: GCN2 Biomarker (IC50), compounds of Formula IV, phosphorylated eIF2α Ser51 in borrelidin-treated U2OS cells
Procedure: Compounds can be screened for their ability to inhibit intracellular GCN2 using an AlphaScreen assay (Perkin Elmer) to detect phosphorylation of the GCN2 substrate eIF2α in borrelidin-treated cells. U2OS cells are plated at 5,000 cells per well in 384-well white polystyrene plates (Corning 3570) in McCoy's 5 A media (GIBCO 26600-023) supplemented with 10% foetal bovine serum (SAFC 12103C), Penicillin/Streptomycin solution diluted 1:100 (Sigma P0781), and 2 mM L-glutamine (Sigma G7513), and allowed to adhere overnight at 37° C. in 5% CO2. Compounds are then added to the cell media from a final concentration of 40 μM in 4-fold serial dilutions. Borrelidin (FluoroChem M01440) is immediately added to the wells to a final concentration of 10 μM and the cells are incubated for 1 h at 37° C. in 5% CO2. After 1 h of treatment with borrelidin, the media is removed, and the cells are lysed with lysis buffer (TGR BioSciences TGRLB) at ambient temperature.
An AlphaScreen SureFire P-eIF2α (Ser51) assay kit (Perkin Elmer TGREIF2S) was used to measure levels of eIF2α phosphorylated on Serine 51. […]
Plates are analyzed on an Alpha Technology-compatible PHERAstar FS plate reader (BMG Labtech Version 1.14) to quantify phosphorylated eIF2α Ser51 levels. The percentage inhibition of phosphorylated eIF2α is calculated by comparison to control wells stimulated with borrelidin alone.

Compound | Ki (GCN2 kinase) [nM] | IC50 [1] [nM]
CC1CN(c2ccnc(-c3cnc4cnc(C(F)(F)F)cn34)n2)C(C)C(c2c[nH]cn2)N1 (stereo not drawn) | 10 to 100 | –
C[C@@H]1NC[C@H](C)N(c2ccnc(-c3cnc4cnc(Br)cn34)n2)[C@@H]1c1c[nH]cn1 (relative stereo) | 10 to 100 | 500 to 5000

Structures were worked out from names or drawings and are uncertain.
